In patent US20220403022A1:
Positions count from the first letter of the chain named. Results are given in words; binding and its absence hold for the method and conditions named. A result given as binding can be weak or reduced; the word gives no strength.

B1: 3964A06 (antibody, human IgG1, V domains shown)
VH: EVQLVQSGSELKKPGASVKVSCKASGYTFTAYPMNWVRQAPGQGLEWMGWINTNTGNPTYAQGFTGRFVFSLDTSVSTAYLQISSLKAEDTAVYYCARVGGYSVYDYAFDIWGQGTMVTVSS
VL: DIQLTQSPSFLSASVGDRVTITCRASQGISSYLAWYQQKPGKAPKLLIYAASTLQSGVPSRFSGSGSGTEFTLTISSLQPEDFATYYCQQLNSYPTFGGGTKVEIK
B2: 3965D08 (antibody, human IgG1, V domains shown)
VH: EVQLVQSGSELKKPGASVKVSCKASGYTFTSYPMNWVRQAPGQGLEWMGWINTNTGNPTYAQGFTGRFVFSLDTSVSTAYLQISSLKAEDTAVYYCARTGYSGSYYWFDPWGQGTLVTVSS
VL: B1 VL with Q3R, L46F, P95L, G99Q, K102R, V103L
B3: 3966C11 (antibody, human IgG1, V domains shown)
VH: B1 VH with V2I, A31S, Y60N, S103G, V104G
VL: B1 VL with V103L

target: cynomolgus monkey TIGIT ECD expressed on the CHO-S cell surface (cynomolgus monkey); test: flow cytometry on CHO-S cells expressing cynomolgus monkey TIGIT ECD

binding, binds:
B1
B2
B3
